In US20220024983A1, “BICYCLIC PEPTIDE LIGANDS SPECIFIC FOR IL-17” (BicycleRD Limited, priority 2018, published 2022):
Results are given in words; binding and its absence hold for the method and conditions named. Some entries that bind do so weakly or less than the wild type.

Target: T1, human IL-17E (human, UniProt Q9H293 33-177)
T1 construct: also called hIL17-E; IL-25
T1 sequence (looked up): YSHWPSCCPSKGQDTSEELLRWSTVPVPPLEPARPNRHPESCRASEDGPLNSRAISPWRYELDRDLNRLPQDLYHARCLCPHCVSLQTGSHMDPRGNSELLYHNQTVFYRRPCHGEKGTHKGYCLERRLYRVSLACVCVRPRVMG
Assay: binding assay; the sentence refers to Table 1

In the case of ACGYDYYCALYDICA (Ci, Cii and Ciii cyclised with TBMB) [BCY2240 [A-(SEQ ID NO: 56)-A]], the binding is reported as “binds”.
